Results are given in words; binding and its absence hold for the method and conditions named. In cells and extracts the contact can be indirect. These calls come from enrichment with a bait or labelling near it, and not all partners need be listed. A no says only that the protein was not detected with the bait.
Target: T1, LGG-2/LC3 used for the interactome analysis (affinity purification) (C. elegans) (UniProt Q23536)
T1 sequence: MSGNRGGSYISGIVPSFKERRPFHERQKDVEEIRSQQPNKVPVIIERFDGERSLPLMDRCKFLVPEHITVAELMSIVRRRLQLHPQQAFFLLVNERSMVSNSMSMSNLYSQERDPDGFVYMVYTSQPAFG
Assay: affinity purification with mass spectrometry

- binding: no binding
Substance: RET-1 (reticulon protein), endogenous in worms (C. elegans (endogenous in worms))

Source: article doi:10.1101/2024.07.26.605287
